The values that follow come from paper PMC4226509.

These are yes or no findings as the source states them, for the method shown. In cells and extracts the contact can be indirect. Some binding calls cover weakened binding; strength is not graded here. Sequences can lack the tags named with a protein.

The target in the assay is T1, PRPF3, in vitro translated (UniProt O43395).
T1 sequence (chain, [35S]-L-methionine label): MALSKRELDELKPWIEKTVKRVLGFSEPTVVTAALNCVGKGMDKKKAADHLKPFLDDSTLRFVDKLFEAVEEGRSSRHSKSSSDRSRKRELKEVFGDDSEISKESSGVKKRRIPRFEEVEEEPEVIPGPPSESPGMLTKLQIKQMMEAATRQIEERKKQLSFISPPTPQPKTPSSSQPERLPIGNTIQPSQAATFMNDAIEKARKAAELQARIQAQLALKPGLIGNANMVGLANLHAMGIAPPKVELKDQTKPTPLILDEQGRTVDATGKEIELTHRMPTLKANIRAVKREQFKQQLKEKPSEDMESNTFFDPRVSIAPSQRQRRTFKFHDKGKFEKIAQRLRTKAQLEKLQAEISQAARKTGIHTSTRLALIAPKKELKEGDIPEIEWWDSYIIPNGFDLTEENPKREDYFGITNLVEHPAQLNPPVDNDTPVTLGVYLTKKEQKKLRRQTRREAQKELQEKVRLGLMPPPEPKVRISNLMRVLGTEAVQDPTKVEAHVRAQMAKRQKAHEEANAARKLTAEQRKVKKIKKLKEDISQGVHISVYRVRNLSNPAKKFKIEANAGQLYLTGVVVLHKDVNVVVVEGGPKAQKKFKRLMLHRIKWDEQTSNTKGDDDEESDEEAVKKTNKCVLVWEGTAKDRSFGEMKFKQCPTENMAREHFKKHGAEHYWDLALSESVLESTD
Kind of assay: co-IP; [35S]-labelled proteins translated together in rabbit reticulocyte lysate; precipitated with anti-PRPF3 antibody on protein A- or G-Sepharose in IPP300 (20 mM Tris pH 7.0, 300 mM NaCl, 0.05% NP40); autoradiography.

B1: HA-tagged wildtype PRPF4, in vitro translated (protein, UniProt O43172 1-522)
chain: MASSRASSTQATKTKAPDDLVAPVVKKPHIYYGSLEEKERERLAKGESGILGKDGLKAGIEAGNINITSGEVFEIEEHISERQAEVLAEFERRKRARQINVSTDDSEVKACLRALGEPITLFGEGPAERRERLRNILSVVGTDALKKTKKDDEKSKKSKEEYQQTWYHEGPNSLKVARLWIANYSLPRAMKRLEEARLHKEIPETTRTSQMQELHKSLRSLNNFCSQIGDDRPISYCHFSPNSKMLATACWSGLCKLWSVPDCNLLHTLRGHNTNVGAIVFHPKSTVSLDPKDVNLASCAADGSVKLWSLDSDEPVADIEGHTVRVARVMWHPSGRFLGTTCYDRSWRLWDLEAQEEILHQEGHSMGVYDIAFHQDGSLAGTGGLDAFGRVWDLRTGRCIMFLEGHLKEIYGINFSPNGYHIATGSGDNTCKVWDLRQRRCVYTIPAHQNLVTGVKFEPIHGNFLLTGAYDNTAKIWTHPGWSPLKTLAGHEGKVMGLDISSDGQLIATCSYDRTFKLWMAE
modifications: [35S]-L-methionine label
B1: the binding entry is recorded as “binds”.
